These are yes or no findings as the source states them, for the method shown. For some assays here: Binding seen in cells or lysates may run through a third protein. Some binding calls cover weakened binding; strength is not graded here.
Legend:
[1] = molecular target: T1, Ataxin-1-like (ATXN1L), mouse, endogenous (mouse (endogenous in mouse brain tissue)) (UniProt P0C7T6); assay: co-IP; cortex lysate of 12 week old WT mice (NEMT buffer or 75 mM NaCl, 5 mM MgCl2, 50 mM Tris-HCl pH 8.0, 0.5% Triton X-100); IP with anti-ATXN1 (534) or anti-ATXN1L (881) on Protein G Dynabeads, 2–3 h at 4°C; blot for CIC
T1 sequence: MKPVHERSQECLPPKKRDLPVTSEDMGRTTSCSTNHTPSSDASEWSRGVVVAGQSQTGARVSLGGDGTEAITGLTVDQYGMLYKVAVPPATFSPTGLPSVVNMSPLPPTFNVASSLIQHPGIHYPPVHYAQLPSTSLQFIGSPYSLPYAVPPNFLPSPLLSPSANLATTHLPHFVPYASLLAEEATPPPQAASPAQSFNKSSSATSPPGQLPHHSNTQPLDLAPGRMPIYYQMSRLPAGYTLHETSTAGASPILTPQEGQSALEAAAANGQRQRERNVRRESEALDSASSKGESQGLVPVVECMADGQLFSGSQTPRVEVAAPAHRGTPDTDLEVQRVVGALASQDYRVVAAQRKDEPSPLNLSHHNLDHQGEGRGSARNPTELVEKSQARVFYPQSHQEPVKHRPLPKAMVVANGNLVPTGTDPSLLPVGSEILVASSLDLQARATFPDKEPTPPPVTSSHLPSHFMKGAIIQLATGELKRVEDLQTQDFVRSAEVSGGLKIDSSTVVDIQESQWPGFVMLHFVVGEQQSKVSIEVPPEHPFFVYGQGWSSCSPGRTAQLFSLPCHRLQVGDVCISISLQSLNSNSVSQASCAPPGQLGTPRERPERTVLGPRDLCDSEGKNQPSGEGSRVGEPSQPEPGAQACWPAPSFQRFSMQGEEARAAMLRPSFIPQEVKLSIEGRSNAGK

Protein sequences, listed by entry. Tags and fused reporters are not part of them. Lines headed by an entry give the natural chain unless they say otherwise; changes in a name come on top. Chains listed by the source or under a name are the forms on record and can include a tag or linker.
Capicua short isoform (CIC-S), mouse, endogenous (Q924A2-2, form named): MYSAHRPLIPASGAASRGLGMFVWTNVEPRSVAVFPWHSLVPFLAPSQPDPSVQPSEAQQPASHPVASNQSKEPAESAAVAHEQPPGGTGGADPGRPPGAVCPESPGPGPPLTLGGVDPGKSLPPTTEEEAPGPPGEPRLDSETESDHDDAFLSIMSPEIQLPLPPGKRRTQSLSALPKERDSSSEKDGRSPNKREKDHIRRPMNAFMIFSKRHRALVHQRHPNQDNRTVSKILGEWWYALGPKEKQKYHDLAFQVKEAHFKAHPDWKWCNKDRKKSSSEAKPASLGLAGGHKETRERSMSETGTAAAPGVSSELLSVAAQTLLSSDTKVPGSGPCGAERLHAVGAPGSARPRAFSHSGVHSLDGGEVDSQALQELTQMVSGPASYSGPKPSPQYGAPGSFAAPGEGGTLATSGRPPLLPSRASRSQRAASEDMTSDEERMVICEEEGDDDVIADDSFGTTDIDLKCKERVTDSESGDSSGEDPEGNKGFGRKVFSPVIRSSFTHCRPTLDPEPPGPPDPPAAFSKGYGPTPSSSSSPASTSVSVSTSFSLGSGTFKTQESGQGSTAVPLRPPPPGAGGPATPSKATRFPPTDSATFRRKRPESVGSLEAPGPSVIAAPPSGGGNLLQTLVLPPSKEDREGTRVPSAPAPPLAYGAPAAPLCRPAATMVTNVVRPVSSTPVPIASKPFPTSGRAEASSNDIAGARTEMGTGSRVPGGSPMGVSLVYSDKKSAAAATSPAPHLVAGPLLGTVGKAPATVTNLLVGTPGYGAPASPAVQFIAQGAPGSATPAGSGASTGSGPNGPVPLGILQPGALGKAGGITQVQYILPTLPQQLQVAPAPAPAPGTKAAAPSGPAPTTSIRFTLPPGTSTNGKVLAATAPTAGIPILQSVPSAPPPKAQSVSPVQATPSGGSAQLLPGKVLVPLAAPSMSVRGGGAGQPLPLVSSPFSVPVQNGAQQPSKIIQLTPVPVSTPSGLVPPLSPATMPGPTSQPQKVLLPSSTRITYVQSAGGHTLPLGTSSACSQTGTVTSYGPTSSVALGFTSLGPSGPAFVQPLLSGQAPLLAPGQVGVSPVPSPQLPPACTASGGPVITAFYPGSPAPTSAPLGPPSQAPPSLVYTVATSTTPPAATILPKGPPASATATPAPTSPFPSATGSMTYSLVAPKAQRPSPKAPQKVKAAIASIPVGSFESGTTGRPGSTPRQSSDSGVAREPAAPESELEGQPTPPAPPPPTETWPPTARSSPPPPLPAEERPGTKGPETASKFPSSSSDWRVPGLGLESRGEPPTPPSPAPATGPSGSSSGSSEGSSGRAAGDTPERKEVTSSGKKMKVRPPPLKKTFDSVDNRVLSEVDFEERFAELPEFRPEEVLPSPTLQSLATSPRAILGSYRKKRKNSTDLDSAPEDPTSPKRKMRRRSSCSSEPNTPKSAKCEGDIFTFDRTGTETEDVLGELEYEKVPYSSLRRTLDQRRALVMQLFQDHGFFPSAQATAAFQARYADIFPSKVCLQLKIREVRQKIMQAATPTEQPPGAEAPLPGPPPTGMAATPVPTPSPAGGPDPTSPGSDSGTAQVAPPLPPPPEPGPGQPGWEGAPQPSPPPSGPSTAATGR

[2] = molecular target: T1, Ataxin-1-like (ATXN1L), mouse, endogenous (mouse (endogenous in mouse brain tissue)); assay: SEC; Superose 6 10/300 GL, 4°C, 50 mM Tris pH 8.0, 50 mM NaCl, 0.1% Triton X-100; cortex extracts of 2–3 month old WT, Cic-S-KO and Cic-L-KO mice; 1 mL fractions immunoblotted for CIC, ATXN1, ATXN1L
[3] = molecular target: T1, Ataxin-1-like (ATXN1L), mouse, endogenous (mouse (endogenous in mouse brain tissue)); assay: SEC; Superose 6 10/300 GL, 4°C, 50 mM Tris pH 8.0, 50 mM NaCl, 0.1% Triton X-100; cerebellum extracts of 2–3 month old WT, Cic-S-KO and Cic-L-KO mice; 1 mL fractions immunoblotted for CIC, ATXN1, ATXN1L

Substance | binding [1] | binding [2] | binding [3]
Capicua long isoform (CIC-L), mouse, endogenous (from UniProt Q924A2-4 1-2510) | binds | binds | –
Capicua short isoform (CIC-S), mouse, endogenous (from UniProt Q924A2-2 1-1604) | binds | binds | binds

Source: PMC13390769
